Experimental data published in article doi:10.1101/2021.06.15.448540.
No constants are given. Whether binding was seen depends on the method and setting. Some results given as binding are weak or reduced against the parent protein; the word gives no strength.

Target: T1, FhuCB with FhuB T182 and T184 mutated to Ala (Escherichia coli) (UniProt P07821+P06972)
T1 sequence (chain, His-tag labeled with the red-tris-NTA 2nd generation dye (in the MST)) 1: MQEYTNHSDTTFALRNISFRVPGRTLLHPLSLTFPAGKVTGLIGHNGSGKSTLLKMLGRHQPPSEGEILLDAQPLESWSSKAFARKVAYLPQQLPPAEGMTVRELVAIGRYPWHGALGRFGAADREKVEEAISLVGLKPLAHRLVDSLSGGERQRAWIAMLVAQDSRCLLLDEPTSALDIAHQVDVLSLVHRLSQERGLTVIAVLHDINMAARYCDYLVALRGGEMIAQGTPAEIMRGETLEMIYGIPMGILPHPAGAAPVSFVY
T1 sequence (chain, His-tag labeled with the red-tris-NTA 2nd generation dye (in the MST)) 2: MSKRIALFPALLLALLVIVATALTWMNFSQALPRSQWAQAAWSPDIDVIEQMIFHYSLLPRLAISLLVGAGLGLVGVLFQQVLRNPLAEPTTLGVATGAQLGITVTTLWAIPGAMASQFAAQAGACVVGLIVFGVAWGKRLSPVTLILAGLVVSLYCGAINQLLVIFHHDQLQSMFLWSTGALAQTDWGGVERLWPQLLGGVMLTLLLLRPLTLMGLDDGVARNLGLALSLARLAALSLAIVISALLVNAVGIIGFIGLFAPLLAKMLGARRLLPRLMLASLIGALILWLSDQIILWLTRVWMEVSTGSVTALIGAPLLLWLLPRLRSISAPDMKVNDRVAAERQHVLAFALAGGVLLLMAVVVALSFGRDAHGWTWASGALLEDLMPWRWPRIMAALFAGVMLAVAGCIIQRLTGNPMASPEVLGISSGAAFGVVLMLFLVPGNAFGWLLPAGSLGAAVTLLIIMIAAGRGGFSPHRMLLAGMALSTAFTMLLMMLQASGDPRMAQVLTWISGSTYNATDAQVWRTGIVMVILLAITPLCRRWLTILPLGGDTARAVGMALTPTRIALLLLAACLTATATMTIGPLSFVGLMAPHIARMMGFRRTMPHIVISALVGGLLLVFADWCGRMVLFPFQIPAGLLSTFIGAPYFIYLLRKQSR
Test: MST

binding: binds
B1: FhuD (separately expressed periplasmic substrate-binding protein) (protein, UniProt P07822 31-296)
chain: AAIDPNRIVALEWLPVELLLALGIVPYGVADTINYRLWVSEPPLPDSVIDVGLRTEPNLELLTEMKPSFMVWSAGYGPSPEMLARIAPGRGFNFSDGKQPLAMARKSLTEMADLLNLQSAAETHLAQYEDFIRSMKPRFVKRGARPLLLTTLIDPRHMLVFGPNSLFQEILDEYGIPNAWQGETNFWGSTAVSIDRLAAYKDVDVLCFDHDNSKDMDALMATPLWQAMPFVRAGRFQRVPAVWFYGATLSAMHFVRVLDNAIGGKA
